The values below come from PMC7196271.

Chains of the proteins cited; added tags and fusions are not shown.
UniProt P01106: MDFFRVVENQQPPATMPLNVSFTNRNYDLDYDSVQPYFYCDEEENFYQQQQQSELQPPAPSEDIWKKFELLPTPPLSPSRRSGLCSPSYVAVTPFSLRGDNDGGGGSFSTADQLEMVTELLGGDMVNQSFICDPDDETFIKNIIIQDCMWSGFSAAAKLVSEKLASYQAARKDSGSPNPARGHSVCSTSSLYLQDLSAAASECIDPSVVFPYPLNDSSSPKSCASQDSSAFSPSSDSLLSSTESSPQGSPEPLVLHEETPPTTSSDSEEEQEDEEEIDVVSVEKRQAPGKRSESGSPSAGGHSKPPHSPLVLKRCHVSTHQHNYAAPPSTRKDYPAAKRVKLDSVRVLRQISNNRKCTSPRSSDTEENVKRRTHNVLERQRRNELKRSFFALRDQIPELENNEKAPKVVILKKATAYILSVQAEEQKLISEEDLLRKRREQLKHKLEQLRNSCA
UniProt Q969H0: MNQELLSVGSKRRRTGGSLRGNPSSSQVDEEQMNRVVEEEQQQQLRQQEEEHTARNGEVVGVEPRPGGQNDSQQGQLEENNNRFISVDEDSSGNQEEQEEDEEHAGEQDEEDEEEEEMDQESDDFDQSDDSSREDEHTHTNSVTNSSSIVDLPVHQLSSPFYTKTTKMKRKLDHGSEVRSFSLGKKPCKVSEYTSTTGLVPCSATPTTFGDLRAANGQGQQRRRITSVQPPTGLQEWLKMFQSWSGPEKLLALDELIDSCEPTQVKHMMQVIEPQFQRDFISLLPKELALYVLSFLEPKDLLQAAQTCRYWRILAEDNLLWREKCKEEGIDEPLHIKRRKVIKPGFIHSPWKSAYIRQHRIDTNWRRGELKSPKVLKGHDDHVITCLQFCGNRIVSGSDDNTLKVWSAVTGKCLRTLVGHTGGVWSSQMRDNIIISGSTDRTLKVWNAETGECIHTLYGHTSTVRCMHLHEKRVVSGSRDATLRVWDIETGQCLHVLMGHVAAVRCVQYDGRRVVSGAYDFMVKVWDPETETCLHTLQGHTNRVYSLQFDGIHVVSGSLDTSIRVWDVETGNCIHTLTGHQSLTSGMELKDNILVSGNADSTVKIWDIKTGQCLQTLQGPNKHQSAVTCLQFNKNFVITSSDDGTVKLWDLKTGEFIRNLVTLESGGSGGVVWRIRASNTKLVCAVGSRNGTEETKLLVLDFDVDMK

No constants are given. Whether binding was seen depends on the method and setting. Binding seen in cells or lysates may run through a third protein. Some entries that bind do so weakly or less than the wild type.

One assay deals with HA-c-Myc (UniProt P01106). Description: co-IP; HA-c-Myc and Flag-FBW7 co-transfected into 293T cells for 48 h; whole-cell extract (Pierce IP Lysis Buffer) incubated with HA antibody or Flag antibody and agarose A/G beads; western blot; xanthohumol treatment according to the text. (In general: A western blot detects proteins with antibodies after separation by electrophoresis.)
Assay [1] deals with FBW7 (endogenous, U87 cells) (human (endogenous in U87)) (UniProt Q969H0). The assay is described as follows: co-IP; endogenous proteins; U87 cells treated with or without xanthohumol; whole-cell lysate incubated with FBW7 antibody or c-Myc antibody and agarose A/G beads; western blot.

Regarding Flag-FBW7 (from UniProt Q969H0 1-707), the binding result with HA-c-Myc is “binds”.
In the case of “c-Myc (endogenous, U87 cells) (from UniProt P01106 1-454)”, the binding result in assay [1] is “binds”.
